Compound in the experiment: COc1ccc(Cn2ccc3cc(C)c(C(=O)NO)cc32)cc1
As to the kind of experiment: dose-dependent thermal stabilisation call (2D-TPP, DLPTP, 10% FDR) (binary (1 = stabilised)); higher = stabilised by the compound. The following applies: system: HL-60 intact cells; concentration range 0.04-10 µM. On the procedure: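 2D thermal proteome profiling in intact HL-60 cells treated with BRD-3811 (0, 0.04, 0.29, 2, 10 uM) for 90 min at 37 C, then heated 3 min at one of 12 temperatures (42-63.9 C). Soluble protein was quantified by TMT10 MS. The value is the DLPTP call of the paper: dose-dependent thermal stabilisation over all temperatures at 10% FDR (F-test of a dose-response against a flat model); one experiment, one call per tested protein.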

By UniProt entry, the sequences of proteins in these tests, tags left out. Where a name states a change or a piece, a line headed by the entry shows the natural chain unless it says otherwise.
UniProt Q9UQE7: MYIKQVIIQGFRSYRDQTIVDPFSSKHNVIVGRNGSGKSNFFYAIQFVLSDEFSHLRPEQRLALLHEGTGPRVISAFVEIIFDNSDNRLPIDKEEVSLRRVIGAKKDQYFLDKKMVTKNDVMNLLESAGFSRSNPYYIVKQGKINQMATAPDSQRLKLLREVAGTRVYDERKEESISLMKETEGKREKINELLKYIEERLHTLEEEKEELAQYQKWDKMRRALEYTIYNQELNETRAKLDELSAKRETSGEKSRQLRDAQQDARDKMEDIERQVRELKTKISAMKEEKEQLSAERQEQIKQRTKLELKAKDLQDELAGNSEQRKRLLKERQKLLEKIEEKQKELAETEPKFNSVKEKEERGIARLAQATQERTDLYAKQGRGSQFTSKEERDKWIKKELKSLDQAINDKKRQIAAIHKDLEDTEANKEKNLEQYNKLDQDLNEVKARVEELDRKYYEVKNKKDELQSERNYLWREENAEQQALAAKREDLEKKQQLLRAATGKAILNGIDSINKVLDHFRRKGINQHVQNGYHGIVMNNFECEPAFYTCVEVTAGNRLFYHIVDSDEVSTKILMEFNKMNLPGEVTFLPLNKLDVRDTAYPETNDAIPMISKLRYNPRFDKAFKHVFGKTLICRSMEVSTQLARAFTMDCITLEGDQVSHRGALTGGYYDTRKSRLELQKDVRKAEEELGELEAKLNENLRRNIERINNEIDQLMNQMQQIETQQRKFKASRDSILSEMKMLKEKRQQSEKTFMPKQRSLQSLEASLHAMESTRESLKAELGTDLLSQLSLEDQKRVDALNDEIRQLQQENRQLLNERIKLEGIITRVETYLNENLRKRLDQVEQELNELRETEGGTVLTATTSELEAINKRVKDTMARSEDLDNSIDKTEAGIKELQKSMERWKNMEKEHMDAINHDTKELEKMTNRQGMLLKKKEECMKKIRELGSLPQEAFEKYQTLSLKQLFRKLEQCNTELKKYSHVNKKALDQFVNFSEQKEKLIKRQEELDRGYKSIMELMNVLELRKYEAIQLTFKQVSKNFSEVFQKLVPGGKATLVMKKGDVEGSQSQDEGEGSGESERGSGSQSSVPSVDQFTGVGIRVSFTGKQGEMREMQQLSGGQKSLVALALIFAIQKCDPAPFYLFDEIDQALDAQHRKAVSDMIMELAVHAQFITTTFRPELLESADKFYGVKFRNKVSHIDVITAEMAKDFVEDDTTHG
UniProt O95149, whole entry: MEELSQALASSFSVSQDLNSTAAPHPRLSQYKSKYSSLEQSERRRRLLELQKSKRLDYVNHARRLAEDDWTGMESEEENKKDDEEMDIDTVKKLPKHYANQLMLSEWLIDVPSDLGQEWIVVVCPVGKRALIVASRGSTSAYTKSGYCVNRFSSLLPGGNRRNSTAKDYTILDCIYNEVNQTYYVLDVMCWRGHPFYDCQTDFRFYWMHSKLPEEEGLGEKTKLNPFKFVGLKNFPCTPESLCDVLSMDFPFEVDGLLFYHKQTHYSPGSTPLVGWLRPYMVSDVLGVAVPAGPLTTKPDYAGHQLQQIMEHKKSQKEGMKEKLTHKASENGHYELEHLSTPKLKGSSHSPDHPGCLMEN
UniProt Q9Y5X1: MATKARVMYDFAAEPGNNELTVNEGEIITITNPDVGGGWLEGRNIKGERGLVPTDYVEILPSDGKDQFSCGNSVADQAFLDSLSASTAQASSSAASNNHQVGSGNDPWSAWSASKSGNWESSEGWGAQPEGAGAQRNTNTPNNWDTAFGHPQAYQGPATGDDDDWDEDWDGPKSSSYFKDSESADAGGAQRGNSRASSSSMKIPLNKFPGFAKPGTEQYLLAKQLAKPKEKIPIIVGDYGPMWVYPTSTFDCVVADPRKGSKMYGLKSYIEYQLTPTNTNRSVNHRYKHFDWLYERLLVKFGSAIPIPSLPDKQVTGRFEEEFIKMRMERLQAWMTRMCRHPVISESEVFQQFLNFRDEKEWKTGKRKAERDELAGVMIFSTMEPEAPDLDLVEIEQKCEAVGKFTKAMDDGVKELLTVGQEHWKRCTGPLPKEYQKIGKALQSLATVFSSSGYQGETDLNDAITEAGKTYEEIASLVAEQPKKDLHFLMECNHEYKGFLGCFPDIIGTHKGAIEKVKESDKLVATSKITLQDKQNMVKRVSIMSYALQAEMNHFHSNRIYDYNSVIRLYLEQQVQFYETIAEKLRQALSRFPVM
UniProt Q13435: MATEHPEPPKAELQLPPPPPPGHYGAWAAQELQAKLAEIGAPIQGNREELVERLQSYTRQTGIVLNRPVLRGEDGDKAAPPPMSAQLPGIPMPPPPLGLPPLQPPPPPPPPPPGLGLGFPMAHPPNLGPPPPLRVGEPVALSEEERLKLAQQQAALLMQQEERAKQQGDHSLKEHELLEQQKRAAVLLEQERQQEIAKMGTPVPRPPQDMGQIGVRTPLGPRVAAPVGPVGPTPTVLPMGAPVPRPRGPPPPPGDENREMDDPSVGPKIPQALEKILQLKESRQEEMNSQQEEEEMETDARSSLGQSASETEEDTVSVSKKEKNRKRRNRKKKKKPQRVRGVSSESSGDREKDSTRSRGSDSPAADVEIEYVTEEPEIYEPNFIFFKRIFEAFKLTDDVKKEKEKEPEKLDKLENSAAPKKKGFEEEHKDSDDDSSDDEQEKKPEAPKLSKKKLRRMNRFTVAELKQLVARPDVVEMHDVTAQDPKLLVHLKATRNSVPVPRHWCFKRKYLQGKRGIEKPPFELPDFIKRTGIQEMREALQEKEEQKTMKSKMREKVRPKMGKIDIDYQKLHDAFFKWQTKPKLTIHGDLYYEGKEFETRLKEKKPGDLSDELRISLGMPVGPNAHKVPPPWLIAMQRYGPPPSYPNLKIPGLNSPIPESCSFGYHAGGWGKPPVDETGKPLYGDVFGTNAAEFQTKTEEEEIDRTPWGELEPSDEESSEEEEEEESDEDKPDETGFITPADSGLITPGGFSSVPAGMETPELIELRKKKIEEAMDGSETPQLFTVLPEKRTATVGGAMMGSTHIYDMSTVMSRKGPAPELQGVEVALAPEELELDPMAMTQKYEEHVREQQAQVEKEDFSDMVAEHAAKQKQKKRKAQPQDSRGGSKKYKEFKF
UniProt Q8WWI5: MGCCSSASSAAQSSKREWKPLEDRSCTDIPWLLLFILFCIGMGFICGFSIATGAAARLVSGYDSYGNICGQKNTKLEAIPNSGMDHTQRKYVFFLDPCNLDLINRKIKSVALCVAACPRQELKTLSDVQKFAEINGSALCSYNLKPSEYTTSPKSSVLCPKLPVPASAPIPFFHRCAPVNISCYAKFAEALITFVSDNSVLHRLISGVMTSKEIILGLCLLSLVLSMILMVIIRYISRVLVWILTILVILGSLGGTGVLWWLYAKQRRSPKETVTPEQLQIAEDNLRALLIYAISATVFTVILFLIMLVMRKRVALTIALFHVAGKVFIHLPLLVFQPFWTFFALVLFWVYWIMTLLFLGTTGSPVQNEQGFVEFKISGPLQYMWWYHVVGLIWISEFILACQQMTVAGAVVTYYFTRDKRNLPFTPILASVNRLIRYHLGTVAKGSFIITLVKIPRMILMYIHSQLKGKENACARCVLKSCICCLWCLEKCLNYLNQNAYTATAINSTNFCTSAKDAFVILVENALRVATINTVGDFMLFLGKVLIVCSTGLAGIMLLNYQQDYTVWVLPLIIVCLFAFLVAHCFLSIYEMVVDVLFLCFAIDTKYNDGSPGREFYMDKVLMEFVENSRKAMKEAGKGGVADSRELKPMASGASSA
UniProt P62316, whole entry: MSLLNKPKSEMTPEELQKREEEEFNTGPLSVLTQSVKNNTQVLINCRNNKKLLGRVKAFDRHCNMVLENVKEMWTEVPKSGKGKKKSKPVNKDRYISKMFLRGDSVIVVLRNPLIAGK
UniProt O60669: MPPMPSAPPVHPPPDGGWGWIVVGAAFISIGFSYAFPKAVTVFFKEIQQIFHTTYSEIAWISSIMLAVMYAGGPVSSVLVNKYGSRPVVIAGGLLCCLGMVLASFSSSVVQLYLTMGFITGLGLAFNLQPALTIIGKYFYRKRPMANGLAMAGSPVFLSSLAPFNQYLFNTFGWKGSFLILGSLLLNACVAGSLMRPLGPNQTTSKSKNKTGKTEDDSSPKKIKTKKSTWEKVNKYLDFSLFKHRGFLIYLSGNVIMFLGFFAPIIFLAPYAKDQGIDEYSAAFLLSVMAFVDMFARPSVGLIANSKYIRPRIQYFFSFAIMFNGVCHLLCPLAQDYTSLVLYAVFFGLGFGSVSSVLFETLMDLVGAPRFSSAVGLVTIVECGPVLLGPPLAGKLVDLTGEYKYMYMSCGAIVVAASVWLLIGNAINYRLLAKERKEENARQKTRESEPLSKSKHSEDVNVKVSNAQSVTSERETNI
UniProt P09012, whole entry: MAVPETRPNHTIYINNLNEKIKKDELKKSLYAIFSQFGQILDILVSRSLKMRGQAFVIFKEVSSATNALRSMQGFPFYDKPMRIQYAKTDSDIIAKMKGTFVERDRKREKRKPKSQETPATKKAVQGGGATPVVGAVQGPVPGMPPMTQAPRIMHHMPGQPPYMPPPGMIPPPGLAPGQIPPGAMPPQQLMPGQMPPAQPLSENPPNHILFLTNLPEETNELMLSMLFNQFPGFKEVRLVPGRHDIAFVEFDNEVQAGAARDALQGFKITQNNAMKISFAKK
UniProt Q12824, whole entry: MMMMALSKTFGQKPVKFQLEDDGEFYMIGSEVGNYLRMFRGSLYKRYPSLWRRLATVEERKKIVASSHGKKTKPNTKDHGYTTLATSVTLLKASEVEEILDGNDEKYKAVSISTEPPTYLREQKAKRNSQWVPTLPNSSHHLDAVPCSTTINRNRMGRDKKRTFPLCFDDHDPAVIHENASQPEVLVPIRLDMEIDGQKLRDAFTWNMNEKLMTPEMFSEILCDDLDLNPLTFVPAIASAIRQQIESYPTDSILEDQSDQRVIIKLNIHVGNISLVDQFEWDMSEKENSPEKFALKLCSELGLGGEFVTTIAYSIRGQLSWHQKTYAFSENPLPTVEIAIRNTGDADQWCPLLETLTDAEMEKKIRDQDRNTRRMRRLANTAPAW
UniProt P42285: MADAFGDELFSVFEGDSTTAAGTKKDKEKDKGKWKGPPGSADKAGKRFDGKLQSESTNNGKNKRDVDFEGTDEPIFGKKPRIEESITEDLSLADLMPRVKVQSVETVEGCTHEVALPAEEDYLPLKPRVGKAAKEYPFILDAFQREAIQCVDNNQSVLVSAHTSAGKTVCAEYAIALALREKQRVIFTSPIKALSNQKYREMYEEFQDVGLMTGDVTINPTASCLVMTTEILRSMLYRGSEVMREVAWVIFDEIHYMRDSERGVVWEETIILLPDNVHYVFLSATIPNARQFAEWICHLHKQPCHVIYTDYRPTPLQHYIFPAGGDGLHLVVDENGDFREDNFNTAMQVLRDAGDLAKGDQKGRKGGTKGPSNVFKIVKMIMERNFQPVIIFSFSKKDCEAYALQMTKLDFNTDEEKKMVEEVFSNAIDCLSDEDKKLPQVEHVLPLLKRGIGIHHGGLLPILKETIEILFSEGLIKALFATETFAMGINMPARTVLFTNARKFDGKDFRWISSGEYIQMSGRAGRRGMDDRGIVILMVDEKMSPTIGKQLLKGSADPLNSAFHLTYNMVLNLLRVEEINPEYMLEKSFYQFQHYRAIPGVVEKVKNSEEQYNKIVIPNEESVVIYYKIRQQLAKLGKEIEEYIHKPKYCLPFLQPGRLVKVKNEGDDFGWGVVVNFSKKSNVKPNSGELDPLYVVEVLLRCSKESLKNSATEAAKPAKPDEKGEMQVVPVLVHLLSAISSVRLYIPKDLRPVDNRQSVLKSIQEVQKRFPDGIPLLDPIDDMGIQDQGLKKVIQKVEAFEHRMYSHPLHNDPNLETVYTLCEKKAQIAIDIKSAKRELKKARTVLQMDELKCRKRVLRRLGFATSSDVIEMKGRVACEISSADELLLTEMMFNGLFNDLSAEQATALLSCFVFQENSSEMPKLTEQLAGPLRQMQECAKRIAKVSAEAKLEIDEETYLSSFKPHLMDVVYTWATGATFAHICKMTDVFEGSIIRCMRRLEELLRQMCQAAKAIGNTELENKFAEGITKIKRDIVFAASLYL
UniProt P34897: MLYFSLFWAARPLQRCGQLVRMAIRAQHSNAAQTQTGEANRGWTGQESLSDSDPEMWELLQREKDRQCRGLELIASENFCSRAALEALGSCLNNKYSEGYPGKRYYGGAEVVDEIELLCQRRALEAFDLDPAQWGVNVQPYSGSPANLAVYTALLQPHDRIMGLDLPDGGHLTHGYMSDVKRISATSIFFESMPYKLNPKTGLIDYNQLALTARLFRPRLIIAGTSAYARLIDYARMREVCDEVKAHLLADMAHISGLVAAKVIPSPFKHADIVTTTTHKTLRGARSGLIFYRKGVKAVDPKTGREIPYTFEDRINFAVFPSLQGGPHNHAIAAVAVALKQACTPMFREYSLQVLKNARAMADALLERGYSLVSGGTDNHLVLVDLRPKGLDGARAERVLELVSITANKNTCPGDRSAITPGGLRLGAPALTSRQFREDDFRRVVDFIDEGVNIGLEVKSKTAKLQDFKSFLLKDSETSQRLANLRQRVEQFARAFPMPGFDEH

The list shows a part of the results.

In the case of SMC3 (UniProt Q9UQE7), the “dose-dependent thermal stabilisation call” value is inactive: 0.

SMPD4 (UniProt Q9NXE4): the “dose-dependent thermal stabilisation call” value is inactive: 0.

Turning to SLC11A2 (UniProt P49281), the “dose-dependent thermal stabilisation call” value is inactive: 0.

As to SNUPN (UniProt O95149), the “dose-dependent thermal stabilisation call” value is inactive: 0.

In the case of SFXN4 (UniProt Q6P4A7), the “dose-dependent thermal stabilisation call” value is inactive: 0.

Consider SMCHD1 (UniProt A6NHR9), for which the “dose-dependent thermal stabilisation call” value is inactive: 0.

Consider SNX9 (UniProt Q9Y5X1), for which the “dose-dependent thermal stabilisation call” value is inactive: 0.

Turning to SLC25A20 (UniProt O43772), the “dose-dependent thermal stabilisation call” value is inactive: 0.

SF3B2 (UniProt Q13435): the “dose-dependent thermal stabilisation call” value was inactive: 0.

SLC44A1 (UniProt Q8WWI5): the “dose-dependent thermal stabilisation call” value was inactive: 0.

Regarding SFPQ (UniProt P23246), the “dose-dependent thermal stabilisation call” value is inactive: 0.

As for SNRPD2 (UniProt P62316), the “dose-dependent thermal stabilisation call” value was inactive: 0.

As for SF3B1 (UniProt O75533), the “dose-dependent thermal stabilisation call” value was inactive: 0.

On to SLC27A4 (UniProt Q6P1M0), for which the “dose-dependent thermal stabilisation call” value is inactive: 0.

Regarding SLC16A7 (UniProt O60669), the “dose-dependent thermal stabilisation call” value was inactive: 0.

Turning to SLMAP (UniProt Q14BN4), the “dose-dependent thermal stabilisation call” value is inactive: 0.

Consider SNRPA (UniProt P09012), for which the “dose-dependent thermal stabilisation call” value is inactive: 0.

With SFT2D3 (UniProt Q587I9), the “dose-dependent thermal stabilisation call” value was inactive: 0.

In the case of SHARPIN (UniProt Q9H0F6), the “dose-dependent thermal stabilisation call” value is inactive: 0.

Take SLC24A6 (UniProt Q6J4K2): the “dose-dependent thermal stabilisation call” value was inactive: 0.

Consider SMARCB1 (UniProt Q12824), for which the “dose-dependent thermal stabilisation call” value was inactive: 0.

Regarding SFRS14 (UniProt Q8IX01), the “dose-dependent thermal stabilisation call” value is inactive: 0.

Regarding SLC9A7 (UniProt Q96T83), the “dose-dependent thermal stabilisation call” value is inactive: 0.

Regarding SMPD1 (UniProt P17405), the “dose-dependent thermal stabilisation call” value is inactive: 0.

Turning to SKIV2L2 (UniProt P42285), the “dose-dependent thermal stabilisation call” value is inactive: 0.

For SHMT2 (UniProt P34897), the “dose-dependent thermal stabilisation call” value is inactive: 0.

These data come from the supplement of paper PMC7666118.
